These results are taken from publication PMC9382030, “A mechanism for exocyst-mediated tethering via Arf6 and PIP5K1C-driven phosphoinositide conversion” (Current biology : CB, 2022).

Sequences of proteins named here, by UniProt entry; tags and fusion partners are left off.
UniProt Q9NV70: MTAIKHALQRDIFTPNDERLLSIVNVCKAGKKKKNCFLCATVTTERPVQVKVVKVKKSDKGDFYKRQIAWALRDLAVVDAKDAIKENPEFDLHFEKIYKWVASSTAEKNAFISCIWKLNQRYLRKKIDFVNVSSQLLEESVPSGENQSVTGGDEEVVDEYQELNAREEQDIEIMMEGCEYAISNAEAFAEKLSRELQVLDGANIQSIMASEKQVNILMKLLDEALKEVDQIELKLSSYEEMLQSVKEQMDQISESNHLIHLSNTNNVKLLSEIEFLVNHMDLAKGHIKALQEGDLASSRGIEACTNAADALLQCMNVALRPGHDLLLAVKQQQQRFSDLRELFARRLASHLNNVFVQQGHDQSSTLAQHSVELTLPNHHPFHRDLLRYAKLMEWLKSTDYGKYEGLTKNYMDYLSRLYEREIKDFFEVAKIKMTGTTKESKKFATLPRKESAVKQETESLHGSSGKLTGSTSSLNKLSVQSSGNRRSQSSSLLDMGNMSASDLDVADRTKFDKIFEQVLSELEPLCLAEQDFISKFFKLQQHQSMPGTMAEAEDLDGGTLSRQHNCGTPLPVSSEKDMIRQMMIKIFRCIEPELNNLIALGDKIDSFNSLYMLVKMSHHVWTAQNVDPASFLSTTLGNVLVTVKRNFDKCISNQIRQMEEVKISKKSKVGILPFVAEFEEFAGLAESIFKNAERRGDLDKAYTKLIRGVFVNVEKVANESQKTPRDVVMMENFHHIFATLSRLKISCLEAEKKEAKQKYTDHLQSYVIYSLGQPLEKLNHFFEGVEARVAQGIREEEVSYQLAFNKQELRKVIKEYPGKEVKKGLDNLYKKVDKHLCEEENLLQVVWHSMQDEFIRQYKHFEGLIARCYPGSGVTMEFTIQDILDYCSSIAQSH
UniProt Q96KP1: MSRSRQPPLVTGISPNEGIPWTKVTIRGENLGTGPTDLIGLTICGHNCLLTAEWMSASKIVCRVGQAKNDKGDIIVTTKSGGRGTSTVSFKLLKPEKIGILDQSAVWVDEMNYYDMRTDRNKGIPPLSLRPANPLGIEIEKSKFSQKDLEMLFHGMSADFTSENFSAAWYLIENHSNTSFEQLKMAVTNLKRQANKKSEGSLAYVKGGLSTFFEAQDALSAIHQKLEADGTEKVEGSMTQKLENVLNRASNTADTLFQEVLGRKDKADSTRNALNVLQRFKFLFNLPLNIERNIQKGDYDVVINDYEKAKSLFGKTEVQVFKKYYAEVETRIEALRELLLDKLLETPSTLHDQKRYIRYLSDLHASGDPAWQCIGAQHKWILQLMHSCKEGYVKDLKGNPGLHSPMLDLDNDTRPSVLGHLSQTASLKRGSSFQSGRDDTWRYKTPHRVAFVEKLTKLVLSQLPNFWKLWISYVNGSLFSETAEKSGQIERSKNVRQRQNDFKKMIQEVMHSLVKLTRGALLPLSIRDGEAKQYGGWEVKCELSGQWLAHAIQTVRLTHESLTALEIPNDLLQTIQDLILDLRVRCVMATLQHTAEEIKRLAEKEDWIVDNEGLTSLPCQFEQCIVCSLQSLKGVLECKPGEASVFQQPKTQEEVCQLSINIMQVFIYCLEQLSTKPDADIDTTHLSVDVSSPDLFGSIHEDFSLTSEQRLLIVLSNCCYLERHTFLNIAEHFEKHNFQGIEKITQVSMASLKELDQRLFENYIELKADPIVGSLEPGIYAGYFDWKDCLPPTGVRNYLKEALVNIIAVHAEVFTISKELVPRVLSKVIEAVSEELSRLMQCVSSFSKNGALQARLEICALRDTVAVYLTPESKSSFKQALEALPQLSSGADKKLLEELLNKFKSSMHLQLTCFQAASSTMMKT
UniProt O60645: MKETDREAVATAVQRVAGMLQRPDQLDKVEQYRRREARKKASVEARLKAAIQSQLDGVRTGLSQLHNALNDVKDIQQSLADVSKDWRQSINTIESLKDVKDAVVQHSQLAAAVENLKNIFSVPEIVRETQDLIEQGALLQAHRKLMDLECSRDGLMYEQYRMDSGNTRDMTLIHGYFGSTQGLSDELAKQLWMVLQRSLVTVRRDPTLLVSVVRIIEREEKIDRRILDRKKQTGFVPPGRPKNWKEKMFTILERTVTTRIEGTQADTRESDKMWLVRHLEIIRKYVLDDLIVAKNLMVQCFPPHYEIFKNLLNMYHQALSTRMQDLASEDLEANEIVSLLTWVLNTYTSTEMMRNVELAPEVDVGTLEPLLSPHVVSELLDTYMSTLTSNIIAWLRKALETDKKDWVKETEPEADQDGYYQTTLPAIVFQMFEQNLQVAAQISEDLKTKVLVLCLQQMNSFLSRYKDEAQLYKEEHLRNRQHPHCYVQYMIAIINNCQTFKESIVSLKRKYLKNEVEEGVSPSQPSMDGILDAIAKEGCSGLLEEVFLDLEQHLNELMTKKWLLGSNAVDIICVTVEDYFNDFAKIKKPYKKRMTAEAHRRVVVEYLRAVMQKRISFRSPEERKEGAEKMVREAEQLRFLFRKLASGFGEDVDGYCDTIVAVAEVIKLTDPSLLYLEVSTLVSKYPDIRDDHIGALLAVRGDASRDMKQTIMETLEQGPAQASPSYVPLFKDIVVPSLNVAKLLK
UniProt Q96A65: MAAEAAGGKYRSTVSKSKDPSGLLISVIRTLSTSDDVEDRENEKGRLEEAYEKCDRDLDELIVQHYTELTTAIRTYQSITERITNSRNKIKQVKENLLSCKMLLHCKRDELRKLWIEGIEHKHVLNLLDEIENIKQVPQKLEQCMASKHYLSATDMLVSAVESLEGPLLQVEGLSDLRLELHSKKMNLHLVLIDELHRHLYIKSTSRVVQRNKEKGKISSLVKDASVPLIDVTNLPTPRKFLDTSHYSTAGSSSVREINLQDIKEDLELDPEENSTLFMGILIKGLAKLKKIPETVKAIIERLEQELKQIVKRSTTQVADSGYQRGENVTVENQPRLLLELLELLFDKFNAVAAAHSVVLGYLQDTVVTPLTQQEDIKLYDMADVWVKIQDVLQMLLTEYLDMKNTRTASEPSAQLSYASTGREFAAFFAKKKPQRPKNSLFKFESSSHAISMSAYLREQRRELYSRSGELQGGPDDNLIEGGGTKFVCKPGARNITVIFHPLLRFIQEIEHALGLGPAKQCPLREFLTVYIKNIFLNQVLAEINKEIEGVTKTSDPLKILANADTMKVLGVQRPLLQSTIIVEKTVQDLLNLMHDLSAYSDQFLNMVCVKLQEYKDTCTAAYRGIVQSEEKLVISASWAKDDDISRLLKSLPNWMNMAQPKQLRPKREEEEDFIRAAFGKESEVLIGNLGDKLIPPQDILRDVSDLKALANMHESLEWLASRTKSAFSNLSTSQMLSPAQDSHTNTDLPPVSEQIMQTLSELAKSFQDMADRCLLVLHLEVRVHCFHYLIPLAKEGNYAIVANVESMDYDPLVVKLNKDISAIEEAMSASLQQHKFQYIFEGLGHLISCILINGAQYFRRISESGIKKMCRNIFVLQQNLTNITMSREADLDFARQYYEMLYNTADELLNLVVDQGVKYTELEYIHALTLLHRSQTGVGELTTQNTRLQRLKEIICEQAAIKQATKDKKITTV

Results are given in words; binding and its absence hold for the method and conditions named. Some binding calls cover weakened binding; strength is not graded here.

In test [1] the target is N-terminal 6xHis-MBP tagged Exoc1 (human) (UniProt Q9NV70). Kind of test: SEC; reconstitution of subcomplex-1, subcomplex-2 and holocomplex: Sf9 cultures mixed before lysis, capture on amylose resin by the 6xHis-MBP tagged subunit, HRV-3C cleavage, Superose 6 Increase 10/300 GL in 20 mM HEPES, 250 mM NaCl, 0.5 mM TCEP; peak fractions on SDS-PAGE. (In general: SEC sorts molecules by how far they enter the pores of the column.)

Test [2] has the same target. Kind of test: SEC; partial complexes Exoc1:mNeonGreen-Exoc4 and Exoc5:mNeonGreen-Exoc6:Exoc7: amylose resin, HRV-3C cleavage, Superdex200 10/300 GL in 20 mM HEPES, 250 mM NaCl, 0.5 mM TCEP.

On to Exoc2 (from UniProt Q96KP1 1-924), for which, in test [1], the binding result is recorded as “binds”.
On the same count and under the same terms, with Exoc3 (from UniProt O60645 1-745) the entry was “binds”.
Regarding “N-terminal 6xHis-mNeonGreen tagged Exoc4 (from UniProt Q96A65 1-974)”, the binding entry in test [1] and in test [2] was “binds” in each case.
